Results deposited as PubChem BioAssay AID624150 (Cancer Research UK Cambridge, 2012)
Aim: 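Find chromatin regulators that change keratinocyte differentiation across several stimuli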 (primary screen). Cell system: primary human epidermal keratinocytes. Reagent: siRNA pool against human genes, 1-2 µM siRNA in 20 µl nucleofection. Time to read-out: 72 h after transfection plus 48 h differentiation (about 5 days). Treatment: five arms for 48 h: vehicle, AG1478 10 µM, BMP2/7 200 ng/ml, both together, or 10% serum. Read-out: 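Transglutaminase 1 immunostaining divided by DNA staining in each well, background removed, then z-scored versus every test siRNA on that plate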. Scale: z-score, vehicle and z-score, AG1478 10 µM and z-score, BMP2/7 200 ng/ml and z-score, AG1478 with BMP2/7 and z-score, 10% serum: higher = more differentiation marker per cell.
Here is a random part of 331 reagents. 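Each arm had three replicate z-scores, but only the first replicate is printed; higher values mean more differentiation marker per cell.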

no.	Gene	z-score, vehicle	z-score, AG1478 10 µM	z-score, BMP2/7 200 ng/ml	z-score, AG1478 with BMP2/7	z-score, 10% serum
1	SETD1A (SET domain containing 1A, histone lysine methyltransferase)	-0.483	-0.511	-1.49	-1.32	0.0858
2	BRD7 (bromodomain containing 7)	1.94	0.573	1.18	0.622	0.882
3	CDY2A (chromodomain Y-linked 2A)	-0.819	-0.251	-0.854	-0.632	-0.107
4	TDRD5 (tudor domain containing 5)	0.367	-0.323	0.0585	-0.895	0.395
5	TTF2 (transcription termination factor 2)	-0.564	-0.802	-0.145	-0.07	-0.12
6	TDRD3 (tudor domain containing 3)	-0.142	-0.443	-0.357	-0.391	0.53
7	CHD5 (chromodomain helicase DNA binding protein 5)	-0.73	-0.164	-0.556	-0.0731	-0.52
